# Laboratory results reported in the supplement of paper PMC12819154, “High-throughput peptide-centric local stability assay extends protein–ligand identification to membrane proteins, tissues and bacteria” (Nature Structural & Molecular Biology, 2025).
# Amino acid sequences for entries named in this document (tags omitted). A change or cut given only in a name is not applied to a line headed by its entry.
# UniProt Q96E14: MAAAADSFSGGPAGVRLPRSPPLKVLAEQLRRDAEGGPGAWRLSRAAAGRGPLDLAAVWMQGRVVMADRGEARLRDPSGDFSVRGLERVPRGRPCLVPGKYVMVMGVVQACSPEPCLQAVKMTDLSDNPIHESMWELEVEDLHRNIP
# UniProt Q96BR5: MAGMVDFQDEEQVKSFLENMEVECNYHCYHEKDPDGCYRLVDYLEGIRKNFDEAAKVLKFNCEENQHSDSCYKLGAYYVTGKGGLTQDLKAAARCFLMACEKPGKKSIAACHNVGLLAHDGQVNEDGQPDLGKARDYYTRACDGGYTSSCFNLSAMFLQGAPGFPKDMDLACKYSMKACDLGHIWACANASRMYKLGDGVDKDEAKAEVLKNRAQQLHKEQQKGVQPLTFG
# UniProt Q96AE7: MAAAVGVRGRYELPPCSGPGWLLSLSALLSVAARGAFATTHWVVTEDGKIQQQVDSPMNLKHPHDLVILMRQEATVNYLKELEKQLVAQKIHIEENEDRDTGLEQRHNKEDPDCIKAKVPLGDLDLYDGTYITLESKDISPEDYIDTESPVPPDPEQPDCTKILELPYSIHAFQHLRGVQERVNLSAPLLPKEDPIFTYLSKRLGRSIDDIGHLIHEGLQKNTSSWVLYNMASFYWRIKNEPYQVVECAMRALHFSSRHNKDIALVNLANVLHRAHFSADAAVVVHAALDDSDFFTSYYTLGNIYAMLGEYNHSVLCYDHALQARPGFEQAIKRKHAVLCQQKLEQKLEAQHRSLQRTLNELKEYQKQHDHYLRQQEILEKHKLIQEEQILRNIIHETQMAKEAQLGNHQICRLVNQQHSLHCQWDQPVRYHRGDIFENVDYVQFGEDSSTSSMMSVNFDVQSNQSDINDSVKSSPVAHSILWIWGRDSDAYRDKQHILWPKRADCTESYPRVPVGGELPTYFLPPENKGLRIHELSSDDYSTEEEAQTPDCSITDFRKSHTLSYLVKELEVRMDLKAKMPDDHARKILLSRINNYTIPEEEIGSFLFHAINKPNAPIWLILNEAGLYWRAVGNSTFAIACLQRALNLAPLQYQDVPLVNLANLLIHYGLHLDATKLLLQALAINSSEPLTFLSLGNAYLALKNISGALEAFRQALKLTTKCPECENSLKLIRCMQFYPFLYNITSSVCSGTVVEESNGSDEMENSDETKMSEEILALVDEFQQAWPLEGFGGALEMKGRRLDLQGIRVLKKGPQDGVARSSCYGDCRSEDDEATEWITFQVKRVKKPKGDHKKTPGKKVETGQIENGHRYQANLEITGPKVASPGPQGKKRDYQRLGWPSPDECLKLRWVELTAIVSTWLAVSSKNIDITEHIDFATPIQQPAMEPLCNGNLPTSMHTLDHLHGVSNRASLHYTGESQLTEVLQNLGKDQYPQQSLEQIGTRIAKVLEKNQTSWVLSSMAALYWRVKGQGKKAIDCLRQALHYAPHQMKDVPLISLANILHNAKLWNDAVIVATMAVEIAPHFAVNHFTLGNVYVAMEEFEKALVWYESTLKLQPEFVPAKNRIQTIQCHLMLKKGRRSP
# UniProt Q93096: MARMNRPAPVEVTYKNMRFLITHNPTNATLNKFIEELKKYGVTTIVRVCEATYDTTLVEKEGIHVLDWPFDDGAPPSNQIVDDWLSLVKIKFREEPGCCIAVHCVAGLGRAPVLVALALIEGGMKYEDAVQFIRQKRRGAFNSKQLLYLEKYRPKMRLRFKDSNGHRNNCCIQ
# UniProt Q96C90: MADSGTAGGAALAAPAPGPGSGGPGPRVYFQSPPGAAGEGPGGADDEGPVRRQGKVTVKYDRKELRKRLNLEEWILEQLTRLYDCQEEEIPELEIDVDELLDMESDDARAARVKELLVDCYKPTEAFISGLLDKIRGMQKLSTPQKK
# UniProt Q969V6: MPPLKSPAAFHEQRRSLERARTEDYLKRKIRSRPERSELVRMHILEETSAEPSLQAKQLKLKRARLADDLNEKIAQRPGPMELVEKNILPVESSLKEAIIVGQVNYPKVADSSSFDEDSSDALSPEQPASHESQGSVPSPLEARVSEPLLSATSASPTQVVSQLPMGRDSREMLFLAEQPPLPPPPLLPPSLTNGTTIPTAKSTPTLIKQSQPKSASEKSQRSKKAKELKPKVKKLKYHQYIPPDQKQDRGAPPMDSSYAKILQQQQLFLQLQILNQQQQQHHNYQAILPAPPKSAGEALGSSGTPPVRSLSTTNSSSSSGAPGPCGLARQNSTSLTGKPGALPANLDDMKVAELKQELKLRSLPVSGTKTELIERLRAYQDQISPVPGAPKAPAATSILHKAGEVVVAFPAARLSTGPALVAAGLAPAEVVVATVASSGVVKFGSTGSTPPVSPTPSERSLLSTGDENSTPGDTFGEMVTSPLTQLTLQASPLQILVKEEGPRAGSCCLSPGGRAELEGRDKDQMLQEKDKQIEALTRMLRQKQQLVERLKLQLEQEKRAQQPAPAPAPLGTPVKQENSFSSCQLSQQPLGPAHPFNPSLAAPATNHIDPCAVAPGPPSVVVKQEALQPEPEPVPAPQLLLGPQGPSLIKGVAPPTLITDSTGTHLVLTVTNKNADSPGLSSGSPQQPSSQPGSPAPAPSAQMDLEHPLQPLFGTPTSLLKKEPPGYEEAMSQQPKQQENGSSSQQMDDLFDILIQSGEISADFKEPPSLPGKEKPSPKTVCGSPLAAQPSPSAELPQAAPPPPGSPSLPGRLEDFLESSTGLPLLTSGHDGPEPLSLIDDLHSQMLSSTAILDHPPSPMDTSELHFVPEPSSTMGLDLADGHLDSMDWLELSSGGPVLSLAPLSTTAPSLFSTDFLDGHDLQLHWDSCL
# UniProt Q92636: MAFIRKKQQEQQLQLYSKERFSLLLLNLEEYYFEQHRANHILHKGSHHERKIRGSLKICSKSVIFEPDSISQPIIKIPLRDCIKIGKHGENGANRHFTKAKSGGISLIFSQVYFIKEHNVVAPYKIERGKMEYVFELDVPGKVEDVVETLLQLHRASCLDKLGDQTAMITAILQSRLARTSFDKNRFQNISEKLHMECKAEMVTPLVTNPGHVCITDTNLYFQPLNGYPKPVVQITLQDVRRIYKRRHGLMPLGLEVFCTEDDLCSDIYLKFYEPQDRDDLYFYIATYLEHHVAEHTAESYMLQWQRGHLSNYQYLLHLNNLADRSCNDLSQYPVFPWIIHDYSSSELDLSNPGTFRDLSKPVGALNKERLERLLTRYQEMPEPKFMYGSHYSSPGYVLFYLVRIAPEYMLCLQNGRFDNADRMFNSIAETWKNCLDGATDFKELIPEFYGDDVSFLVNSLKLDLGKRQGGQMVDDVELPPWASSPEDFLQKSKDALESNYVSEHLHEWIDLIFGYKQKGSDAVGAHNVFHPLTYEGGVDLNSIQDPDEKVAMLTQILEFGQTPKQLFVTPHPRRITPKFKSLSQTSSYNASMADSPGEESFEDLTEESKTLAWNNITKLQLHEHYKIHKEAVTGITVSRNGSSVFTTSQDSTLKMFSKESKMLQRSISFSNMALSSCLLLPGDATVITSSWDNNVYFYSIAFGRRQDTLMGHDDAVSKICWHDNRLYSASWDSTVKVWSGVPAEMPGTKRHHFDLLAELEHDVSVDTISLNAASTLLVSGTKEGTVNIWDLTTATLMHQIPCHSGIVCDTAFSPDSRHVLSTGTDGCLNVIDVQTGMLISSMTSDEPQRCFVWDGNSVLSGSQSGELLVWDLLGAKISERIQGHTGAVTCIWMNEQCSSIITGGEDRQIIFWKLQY
# UniProt Q969T4: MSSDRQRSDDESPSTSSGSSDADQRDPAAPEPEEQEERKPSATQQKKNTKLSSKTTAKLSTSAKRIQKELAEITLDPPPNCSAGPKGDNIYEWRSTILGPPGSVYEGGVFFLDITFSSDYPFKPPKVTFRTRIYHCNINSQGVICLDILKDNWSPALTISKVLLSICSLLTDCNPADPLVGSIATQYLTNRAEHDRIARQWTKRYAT
# UniProt Q92997: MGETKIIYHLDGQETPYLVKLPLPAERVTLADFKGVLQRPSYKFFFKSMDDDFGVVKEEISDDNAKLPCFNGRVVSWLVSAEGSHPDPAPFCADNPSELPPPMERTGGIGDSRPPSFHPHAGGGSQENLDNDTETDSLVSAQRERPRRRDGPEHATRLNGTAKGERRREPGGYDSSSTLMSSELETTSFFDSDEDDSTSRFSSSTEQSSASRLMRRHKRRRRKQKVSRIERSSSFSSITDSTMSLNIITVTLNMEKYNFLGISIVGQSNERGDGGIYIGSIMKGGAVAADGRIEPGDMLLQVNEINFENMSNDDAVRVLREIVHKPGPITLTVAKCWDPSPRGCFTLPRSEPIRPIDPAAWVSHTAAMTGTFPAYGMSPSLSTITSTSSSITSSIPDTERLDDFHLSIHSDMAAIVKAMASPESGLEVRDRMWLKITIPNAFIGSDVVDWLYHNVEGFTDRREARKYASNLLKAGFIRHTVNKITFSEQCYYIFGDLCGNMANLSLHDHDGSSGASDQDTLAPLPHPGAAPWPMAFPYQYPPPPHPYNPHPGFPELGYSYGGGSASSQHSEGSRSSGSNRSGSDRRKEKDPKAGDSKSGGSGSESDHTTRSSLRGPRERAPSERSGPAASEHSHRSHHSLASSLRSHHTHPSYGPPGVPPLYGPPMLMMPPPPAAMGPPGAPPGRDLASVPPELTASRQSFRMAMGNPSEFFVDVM
# UniProt Q96DI7: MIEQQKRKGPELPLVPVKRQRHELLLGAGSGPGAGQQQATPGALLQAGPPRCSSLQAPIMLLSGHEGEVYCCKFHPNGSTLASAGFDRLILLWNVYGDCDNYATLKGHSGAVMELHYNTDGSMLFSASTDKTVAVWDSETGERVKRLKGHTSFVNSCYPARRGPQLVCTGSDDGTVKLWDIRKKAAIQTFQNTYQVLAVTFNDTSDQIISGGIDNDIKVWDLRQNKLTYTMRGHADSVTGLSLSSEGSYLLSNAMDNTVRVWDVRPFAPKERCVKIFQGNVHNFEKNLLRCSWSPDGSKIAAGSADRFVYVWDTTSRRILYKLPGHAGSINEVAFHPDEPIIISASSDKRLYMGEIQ
# UniProt Q96A47: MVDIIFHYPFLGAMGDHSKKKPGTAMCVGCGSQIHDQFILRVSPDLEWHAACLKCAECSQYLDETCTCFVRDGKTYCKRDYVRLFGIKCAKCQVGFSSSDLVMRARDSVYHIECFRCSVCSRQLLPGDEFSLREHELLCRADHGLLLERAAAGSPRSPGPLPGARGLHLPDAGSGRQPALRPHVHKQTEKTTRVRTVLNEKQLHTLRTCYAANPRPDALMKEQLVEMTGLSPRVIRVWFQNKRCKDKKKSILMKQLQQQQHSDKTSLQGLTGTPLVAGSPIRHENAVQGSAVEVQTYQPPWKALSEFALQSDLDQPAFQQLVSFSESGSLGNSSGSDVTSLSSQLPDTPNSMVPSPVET
# UniProt Q96D53: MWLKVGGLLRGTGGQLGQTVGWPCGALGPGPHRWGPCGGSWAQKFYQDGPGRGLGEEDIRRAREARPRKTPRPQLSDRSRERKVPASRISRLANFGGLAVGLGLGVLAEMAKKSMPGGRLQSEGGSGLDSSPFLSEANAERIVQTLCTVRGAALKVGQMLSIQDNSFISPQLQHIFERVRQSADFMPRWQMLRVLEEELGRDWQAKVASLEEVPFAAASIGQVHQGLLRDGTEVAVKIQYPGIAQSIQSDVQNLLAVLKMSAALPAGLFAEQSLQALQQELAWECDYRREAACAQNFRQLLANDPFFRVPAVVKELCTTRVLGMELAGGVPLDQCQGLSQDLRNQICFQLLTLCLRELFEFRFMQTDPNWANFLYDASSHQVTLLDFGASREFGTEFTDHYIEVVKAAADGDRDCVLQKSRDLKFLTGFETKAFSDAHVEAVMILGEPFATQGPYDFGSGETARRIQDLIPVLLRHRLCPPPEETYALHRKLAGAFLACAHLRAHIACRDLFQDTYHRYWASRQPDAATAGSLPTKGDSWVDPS
# UniProt Q969S8: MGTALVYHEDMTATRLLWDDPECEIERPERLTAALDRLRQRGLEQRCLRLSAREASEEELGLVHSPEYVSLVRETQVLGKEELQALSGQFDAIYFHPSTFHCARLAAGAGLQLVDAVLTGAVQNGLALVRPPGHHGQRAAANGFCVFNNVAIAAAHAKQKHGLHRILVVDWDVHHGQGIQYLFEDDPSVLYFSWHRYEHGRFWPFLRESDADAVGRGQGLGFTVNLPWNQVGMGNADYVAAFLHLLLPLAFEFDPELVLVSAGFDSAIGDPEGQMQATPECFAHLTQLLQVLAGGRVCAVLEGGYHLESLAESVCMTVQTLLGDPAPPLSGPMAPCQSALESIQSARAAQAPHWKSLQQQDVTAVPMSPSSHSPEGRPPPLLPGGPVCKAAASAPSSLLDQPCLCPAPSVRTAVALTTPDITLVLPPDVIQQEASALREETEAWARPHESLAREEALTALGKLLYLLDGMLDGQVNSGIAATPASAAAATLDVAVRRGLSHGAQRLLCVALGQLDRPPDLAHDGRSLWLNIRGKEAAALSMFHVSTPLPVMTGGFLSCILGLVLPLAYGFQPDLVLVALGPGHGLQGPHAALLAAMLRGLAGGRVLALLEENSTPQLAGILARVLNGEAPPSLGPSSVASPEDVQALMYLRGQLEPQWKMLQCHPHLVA
# This is one part of the list. Small differences around the control level are noise.
# Compound: Cc1nc(Nc2ncc(C(=O)Nc3c(C)cccc3Cl)s2)cc(N2CCN(CCO)CC2)n1 [dasatinib]
# Assay: log2 fold change of tryptic peptide abundance, ligand vs vehicle (limited proteolysis) (log2 ratio); higher = more trypsin-susceptible (destabilized)
# Settings: ligand concentration: 5 uM; sample: K562 cleared lysate
target,measurement,value
"Sirt1 (peptide sequence: LLQECKK, peptide start residue: 249) (UniProt Q96EB6)",log2 fold change,-0.168
"DTNBP1 (peptide sequence: ERLLSVQQDFTSGLK, peptide start residue: 7) (UniProt Q96EV8)",log2 fold change,-0.752
"RMI2 (peptide sequence: GRPCLVPGK, peptide start residue: 92) (UniProt Q96E14)",log2 fold change,0.119
"PNPLA2 (peptide sequence: LPEQVELR, peptide start residue: 393) (UniProt Q96AD5)",log2 fold change,-0.149
"UniProt Q96BR5 (peptide sequence: ACDLGHIWACANASR, peptide start residue: 178)",log2 fold change,0.102
"MYST3 (peptide sequence: SVILECLYHQNDK, peptide start residue: 697) (UniProt Q92794)",log2 fold change,-0.855
"UniProt Q969W8 (peptide sequence: HPSRLTHHQK, peptide start residue: 210)",log2 fold change,-0.411
"TTC17 (peptide sequence: ILELPYSIHAFQHLR, peptide start residue: 163) (UniProt Q96AE7)",log2 fold change,-0.377
"UniProt Q93096 (peptide sequence: YGVTTIVR, peptide start residue: 40)",log2 fold change,0.0986
"UniProt Q92890 (peptide sequence: GIPNYEFK, peptide start residue: 257)",log2 fold change,-0.104
"TAF15 (peptide sequence: ENYSHHTQDDR, peptide start residue: 154) (UniProt Q92804)",log2 fold change,0.267
"MSI2 (peptide sequence: ECMVMRDPTTK, peptide start residue: 49) (UniProt Q96DH6)",log2 fold change,0.0805
"HPS1 (peptide sequence: EKLTDWKDFLLVK, peptide start residue: 512) (UniProt Q92902)",log2 fold change,-0.4
"CCDC47 (peptide sequence: IMNEEDPEKQR, peptide start residue: 444) (UniProt Q96A33)",log2 fold change,0.481
"REPS1 (peptide sequence: GSVSHDTVQPR, peptide start residue: 142) (UniProt Q96D71)",log2 fold change,0.2
"UniProt Q96EY4 (peptide sequence: KICANDAIPK, peptide start residue: 160)",log2 fold change,0.134
"PPP1R14B (peptide sequence: VYFQSPPGAAGEGPGGADDEGPVRR, peptide start residue: 28) (UniProt Q96C90)",log2 fold change,-0.0568
"UniProt Q96CS4 (peptide sequence: RAHSGECPYVCDQCGKR, peptide start residue: 197)",log2 fold change,-0.506
"UniProt Q969V6 (peptide sequence: DKQIEALTR, peptide start residue: 531)",log2 fold change,0.36
"NSMAF (peptide sequence: KKQQEQQLQLYSK, peptide start residue: 6) (UniProt Q92636)",log2 fold change,0.501
"UniProt Q96CK0 (peptide sequence: LAAYLISLER, peptide start residue: 83)",log2 fold change,-0.524
"PINX1 (peptide sequence: KLQKPVEIAEDATLEETLVK, peptide start residue: 301) (UniProt Q96BK5)",log2 fold change,-0.631
"TFG (peptide sequence: NRPPFGQGYTQPGPGYR, peptide start residue: 384) (UniProt Q92734)",log2 fold change,-0.0276
"UBE2E3 (peptide sequence: KPSATQQK, peptide start residue: 39) (UniProt Q969T4)",log2 fold change,-0.0173
"KAT2A (peptide sequence: VYPGLSCFK, peptide start residue: 684) (UniProt Q92830)",log2 fold change,-0.428
"DVL3 (peptide sequence: SGPAASEHSHR, peptide start residue: 625) (UniProt Q92997)",log2 fold change,-0.298
"SNRNP40 (peptide sequence: KGPELPLVPVKR, peptide start residue: 8) (UniProt Q96DI7)",log2 fold change,-0.088
"ISL2 (peptide sequence: VSPDLEWHAACLK, peptide start residue: 42) (UniProt Q96A47)",log2 fold change,0.415
"SMARCD2 (peptide sequence: RLLVPQAQPPMPAQR, peptide start residue: 118) (UniProt Q92925)",log2 fold change,-0.255
"UniProt Q96EH3 (peptide sequence: HLHAMAFYVVK, peptide start residue: 134)",log2 fold change,0.0733
"MRPS31 (peptide sequence: ATEYAPKK, peptide start residue: 139) (UniProt Q92665)",log2 fold change,0.618
"GCC1 (peptide sequence: SPLDSHGEESSLDVNVLKDK, peptide start residue: 416) (UniProt Q96CN9)",log2 fold change,-0.5
"UniProt Q96D53 (peptide sequence: EFGTEFTDHYIEVVK, peptide start residue: 392)",log2 fold change,-0.279
"UniProt Q96EA4 (peptide sequence: ETSSKLEK, peptide start residue: 573)",log2 fold change,-1.15
"ZNF622 (peptide sequence: NVVAVGTGGR, peptide start residue: 157) (UniProt Q969S3)",log2 fold change,0.0729
"HDAC10 (peptide sequence: EETEAWARPHESLAR, peptide start residue: 439) (UniProt Q969S8)",log2 fold change,-1.02
"ZKSCAN4 (peptide sequence: VEKEEASALTAEVR, peptide start residue: 27) (UniProt Q969J2)",log2 fold change,-0.407
"UniProt Q92674 (peptide sequence: GIYIDPEILEK, peptide start residue: 660)",log2 fold change,-0.125

# An excerpt of these results, with bars between the fields:
target | measurement | value
UniProt Q96EA4 (peptide sequence: ETSSKLEK, peptide start residue: 573) | log2 fold change | -1.15
ZNF622 (peptide sequence: NVVAVGTGGR, peptide start residue: 157) (UniProt Q969S3) | log2 fold change | 0.0729
